Results deposited as PubChem BioAssay AID1259405 (NCATS, 2018).
This is a random part of about 50,000 reagents tested. Over the whole deposit, about 4,000 (8%) were called active. 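Mouse siRNA library applied to hamster cells; one well for each siRNA.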 Entries without a mark were called inactive. The numbers tell different reagents against one gene apart.

Purpose: 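Mouse-designed siRNAs used to find CHO productivity engineering targets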 (primary screen)
Cell system: Chinese hamster CHO-K1 ovary cells with stable secreted eGFP expression
Knock-down reagent: single siRNA against mouse genes, 0.8 pmol siRNA per well (2 µl of 400 nM stock)
Duration: 3 days
Read-out: 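Per-well intracellular GFP measured by laser scanning cytometry, plus viability from ATP luminescence, each relative to plate median of non-targeting control wells, in %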
Reading the numbers: GFP, % of control: higher = more GFP per well, higher productivity; viability (ATP), % of control: higher = more viable cells (more ATP)
Hit rule: 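a knock-down is called active if GFP reaches 120% or more of non-targeting control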

{"gene knocked down": "Tgfb1", "reagent": 1, "GFP, % of control": 79.5, "viability (ATP), % of control": 57.3}
{"gene knocked down": "Tgfb1", "reagent": 2, "GFP, % of control": 90.4, "viability (ATP), % of control": 70.3}
{"gene knocked down": "Tgfb1", "reagent": 3, "GFP, % of control": 71.7, "viability (ATP), % of control": 94.5}
{"gene knocked down": "Mrpl10", "reagent": 1, "GFP, % of control": 76.7, "viability (ATP), % of control": 62.4}
{"gene knocked down": "Mrpl10", "reagent": 2, "GFP, % of control": 103, "viability (ATP), % of control": 76.8}
{"gene knocked down": "Mrpl10", "reagent": 3, "GFP, % of control": 65.6, "viability (ATP), % of control": 54.2}
{"gene knocked down": "Galnt9", "reagent": 1, "GFP, % of control": "124 (active)", "viability (ATP), % of control": 67.1}
{"gene knocked down": "Galnt9", "reagent": 2, "GFP, % of control": "125 (active)", "viability (ATP), % of control": 135}
{"gene knocked down": "Galnt9", "reagent": 3, "GFP, % of control": 70.4, "viability (ATP), % of control": 91.2}
{"gene knocked down": "Kcnc4", "reagent": 1, "GFP, % of control": 102, "viability (ATP), % of control": 69}
{"gene knocked down": "Kcnc4", "reagent": 2, "GFP, % of control": "166 (active)", "viability (ATP), % of control": 130}
{"gene knocked down": "Kcnc4", "reagent": 3, "GFP, % of control": "173 (active)", "viability (ATP), % of control": 59.5}
{"gene knocked down": "Defb44-ps", "reagent": 1, "GFP, % of control": 43.1, "viability (ATP), % of control": 72.8}
{"gene knocked down": "Defb44-ps", "reagent": 2, "GFP, % of control": 71.3, "viability (ATP), % of control": 60.4}
{"gene knocked down": "Defb44-ps", "reagent": 3, "GFP, % of control": 88.9, "viability (ATP), % of control": 89.7}
{"gene knocked down": "Cpz", "reagent": 1, "GFP, % of control": 105, "viability (ATP), % of control": 88}
{"gene knocked down": "Cpz", "reagent": 2, "GFP, % of control": 76.7, "viability (ATP), % of control": 94.5}
{"gene knocked down": "Cpz", "reagent": 3, "GFP, % of control": 80.9, "viability (ATP), % of control": 53.7}

A run of entries taken from the entries so far, as a working copy:
{"gene knocked down": "Tgfb1", "reagent": 2, "GFP, % of control": 90.4, "viability (ATP), % of control": 70.3}
{"gene knocked down": "Tgfb1", "reagent": 3, "GFP, % of control": 71.7, "viability (ATP), % of control": 94.5}
{"gene knocked down": "Mrpl10", "reagent": 1, "GFP, % of control": 76.7, "viability (ATP), % of control": 62.4}
{"gene knocked down": "Mrpl10", "reagent": 2, "GFP, % of control": 103, "viability (ATP), % of control": 76.8}
{"gene knocked down": "Mrpl10", "reagent": 3, "GFP, % of control": 65.6, "viability (ATP), % of control": 54.2}
{"gene knocked down": "Galnt9", "reagent": 1, "GFP, % of control": "124 (active)", "viability (ATP), % of control": 67.1}

The results go on.
{"gene knocked down": "H3c15", "reagent": 1, "GFP, % of control": 64.1, "viability (ATP), % of control": 28.9}
{"gene knocked down": "H3c15", "reagent": 2, "GFP, % of control": 108, "viability (ATP), % of control": 123}
{"gene knocked down": "H3c15", "reagent": 3, "GFP, % of control": 50.5, "viability (ATP), % of control": 76.1}
{"gene knocked down": "Cfap206", "reagent": 1, "GFP, % of control": 93.8, "viability (ATP), % of control": 61}
{"gene knocked down": "Cfap206", "reagent": 2, "GFP, % of control": 96.2, "viability (ATP), % of control": 83.5}
{"gene knocked down": "Cfap206", "reagent": 3, "GFP, % of control": 75.2, "viability (ATP), % of control": 74.4}
{"gene knocked down": "Mrpl3", "reagent": 1, "GFP, % of control": 90.1, "viability (ATP), % of control": 66.5}
{"gene knocked down": "Mrpl3", "reagent": 2, "GFP, % of control": "132 (active)", "viability (ATP), % of control": 89.2}
{"gene knocked down": "Mrpl3", "reagent": 3, "GFP, % of control": "131 (active)", "viability (ATP), % of control": 66.9}
{"gene knocked down": "Zfp334", "reagent": 1, "GFP, % of control": 63.8, "viability (ATP), % of control": 73.1}
{"gene knocked down": "Zfp334", "reagent": 2, "GFP, % of control": 81.8, "viability (ATP), % of control": 76.2}
{"gene knocked down": "Zfp334", "reagent": 3, "GFP, % of control": 75.4, "viability (ATP), % of control": 81.6}
{"gene knocked down": "Zfp771", "reagent": 1, "GFP, % of control": 30.7, "viability (ATP), % of control": 34.5}
{"gene knocked down": "Zfp771", "reagent": 2, "GFP, % of control": 46.4, "viability (ATP), % of control": 77.7}
{"gene knocked down": "Zfp771", "reagent": 3, "GFP, % of control": 84, "viability (ATP), % of control": 92.2}
{"gene knocked down": "Vmn1r206", "reagent": 1, "GFP, % of control": 64.3, "viability (ATP), % of control": 33.6}
{"gene knocked down": "Vmn1r206", "reagent": 2, "GFP, % of control": 92.8, "viability (ATP), % of control": 74.6}
{"gene knocked down": "Vmn1r206", "reagent": 3, "GFP, % of control": 68.3, "viability (ATP), % of control": 95.3}
{"gene knocked down": "Zfp869", "reagent": 1, "GFP, % of control": 61.7, "viability (ATP), % of control": 75}
{"gene knocked down": "Zfp869", "reagent": 2, "GFP, % of control": 56.8, "viability (ATP), % of control": 51.9}
{"gene knocked down": "Zfp869", "reagent": 3, "GFP, % of control": 94.2, "viability (ATP), % of control": 77.4}
{"gene knocked down": "Atp2a3", "reagent": 1, "GFP, % of control": 95.2, "viability (ATP), % of control": 89.9}
{"gene knocked down": "Atp2a3", "reagent": 2, "GFP, % of control": 61.6, "viability (ATP), % of control": 81.7}
{"gene knocked down": "Atp2a3", "reagent": 3, "GFP, % of control": 47.6, "viability (ATP), % of control": 84.9}
{"gene knocked down": "Pex5l", "reagent": 1, "GFP, % of control": 73.1, "viability (ATP), % of control": 62.7}
{"gene knocked down": "Pex5l", "reagent": 2, "GFP, % of control": 75.9, "viability (ATP), % of control": 67.3}
{"gene knocked down": "Pex5l", "reagent": 3, "GFP, % of control": 41.1, "viability (ATP), % of control": 65.3}
{"gene knocked down": "Kcnh8", "reagent": 1, "GFP, % of control": 92.3, "viability (ATP), % of control": 91.4}
{"gene knocked down": "Kcnh8", "reagent": 2, "GFP, % of control": 76.9, "viability (ATP), % of control": 65.3}
{"gene knocked down": "Kcnh8", "reagent": 3, "GFP, % of control": 96.5, "viability (ATP), % of control": 91.7}
{"gene knocked down": "Dmxl2", "reagent": 1, "GFP, % of control": 63.9, "viability (ATP), % of control": 76.9}
{"gene knocked down": "Dmxl2", "reagent": 2, "GFP, % of control": 24.8, "viability (ATP), % of control": 19.2}
{"gene knocked down": "Dmxl2", "reagent": 3, "GFP, % of control": 73.6, "viability (ATP), % of control": 82}
{"gene knocked down": "Zscan5b", "reagent": 1, "GFP, % of control": 60.7, "viability (ATP), % of control": 86}
{"gene knocked down": "Zscan5b", "reagent": 2, "GFP, % of control": 68.3, "viability (ATP), % of control": 72.7}
{"gene knocked down": "Zscan5b", "reagent": 3, "GFP, % of control": "147 (active)", "viability (ATP), % of control": 88.4}
